Consider 1 molecule from PMC11650987.

No constants are given. Whether binding was seen depends on the method and setting. In cells and extracts the contact can be indirect. Here binding means that the protein was enriched with, or labelled near, the bait; the list need not be complete.

In the experiment the target is HBx-TurboID fusion protein (FLAG-HBx-Turbo) (hepatitis B virus (strain B200, genotype B)). The experiment in a line: proximity labelling; TurboID: Huh7 cells transfected with pFLAG-HBx-Turbo compared with pFLAG-Turbo, 50 µM biotin for 30 min, RIPA lysis, biotinylated proteins captured on streptavidin Dynabeads, LC-MS/MS, MaxQuant iBAQ.

B1: valosin-containing protein-interacting protein 1 (VCPIP1), endogenous (enzyme, UniProt Q96JH7 1-1222)
chain: MSQPPPPPPPLPPPPPPPEAPQTPSSLASAAASGGLLKRRDRRILSGSCPDPKCQARLFFPASGSVSIECTECGQRHEQQQLLGVEEVTDPDVVLHNLLRNALLGVTGAPKKNTELVKVMGLSNYHCKLLSPILARYGMDKQTGRAKLLRDMNQGELFDCALLGDRAFLIEPEHVNTVGYGKDRSGSLLYLHDTLEDIKRANKSQECLIPVHVDGDGHCLVHAVSRALVGRELFWHALRENLKQHFQQHLARYQALFHDFIDAAEWEDIINECDPLFVPPEGVPLGLRNIHIFGLANVLHRPIILLDSLSGMRSSGDYSATFLPGLIPAEKCTGKDGHLNKPICIAWSSSGRNHYIPLVGIKGAALPKLPMNLLPKAWGVPQDLIKKYIKLEEDGGCVIGGDRSLQDKYLLRLVAAMEEVFMDKHGIHPSLVADVHQYFYRRTGVIGVQPEEVTAAAKKAVMDNRLHKCLLCGALSELHVPPEWLAPGGKLYNLAKSTHGQLRTDKNYSFPLNNLVCSYDSVKDVLVPDYGMSNLTACNWCHGTSVRKVRGDGSIVYLDGDRTNSRSTGGKCGCGFKHFWDGKEYDNLPEAFPITLEWGGRVVRETVYWFQYESDSSLNSNVYDVAMKLVTKHFPGEFGSEILVQKVVHTILHQTAKKNPDDYTPVNIDGAHAQRVGDVQGQESESQLPTKIILTGQKTKTLHKEELNMSKTERTIQQNITEQASVMQKRKTEKLKQEQKGQPRTVSPSTIRDGPSSAPATPTKAPYSPTTSKEKKIRITTNDGRQSMVTLKSSTTFFELQESIAREFNIPPYLQCIRYGFPPKELMPPQAGMEKEPVPLQHGDRITIEILKSKAEGGQSAAAHSAHTVKQEDIAVTGKLSSKELQEQAEKEMYSLCLLATLMGEDVWSYAKGLPHMFQQGGVFYSIMKKTMGMADGKHCTFPHLPGKTFVYNASEDRLELCVDAAGHFPIGPDVEDLVKEAVSQVRAEATTRSRESSPSHGLLKLGSGGVVKKKSEQLHNVTAFQGKGHSLGTASGNPHLDPRARETSVVRKHNTGTDFSNSSTKTEPSVFTASSSNSELIRIAPGVVTMRDGRQLDPDLVEAQRKKLQEMVSSIQASMDRHLRDQSTEQSPSDLPQRKTEVVSSSAKSGSLQTGLPESFPLTGGTENLNTETTDGCVADALGAAFATRSKAQRGNSVEELEEMDSQDAEMTNTTEPMDHS
As for B1, the binding result was “binds”.
